Laboratory results published in patent US20070134663A1.
No constants are given. Whether binding was seen depends on the method and setting. Binding seen in cells or lysates may run through a third protein. Some binding calls cover weakened binding; strength is not graded here.

Sequences of proteins named here, by UniProt entry; tags and fusion partners are left off. Residues count along the entry.
UniProt P52294: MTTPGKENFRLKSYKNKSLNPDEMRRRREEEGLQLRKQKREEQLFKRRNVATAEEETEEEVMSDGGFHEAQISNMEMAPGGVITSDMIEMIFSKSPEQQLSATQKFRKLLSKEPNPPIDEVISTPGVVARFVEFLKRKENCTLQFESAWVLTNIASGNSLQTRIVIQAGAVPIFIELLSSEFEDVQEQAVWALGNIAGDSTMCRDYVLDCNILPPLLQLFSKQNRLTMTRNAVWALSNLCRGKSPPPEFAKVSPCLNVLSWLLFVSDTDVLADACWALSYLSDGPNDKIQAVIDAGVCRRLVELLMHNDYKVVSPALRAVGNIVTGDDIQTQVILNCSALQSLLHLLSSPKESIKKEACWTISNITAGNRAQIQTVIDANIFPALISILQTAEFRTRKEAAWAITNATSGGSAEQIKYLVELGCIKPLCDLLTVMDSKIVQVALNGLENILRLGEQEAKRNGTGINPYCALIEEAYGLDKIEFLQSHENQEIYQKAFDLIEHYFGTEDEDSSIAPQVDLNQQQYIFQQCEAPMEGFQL
UniProt P19838, residues 1-436: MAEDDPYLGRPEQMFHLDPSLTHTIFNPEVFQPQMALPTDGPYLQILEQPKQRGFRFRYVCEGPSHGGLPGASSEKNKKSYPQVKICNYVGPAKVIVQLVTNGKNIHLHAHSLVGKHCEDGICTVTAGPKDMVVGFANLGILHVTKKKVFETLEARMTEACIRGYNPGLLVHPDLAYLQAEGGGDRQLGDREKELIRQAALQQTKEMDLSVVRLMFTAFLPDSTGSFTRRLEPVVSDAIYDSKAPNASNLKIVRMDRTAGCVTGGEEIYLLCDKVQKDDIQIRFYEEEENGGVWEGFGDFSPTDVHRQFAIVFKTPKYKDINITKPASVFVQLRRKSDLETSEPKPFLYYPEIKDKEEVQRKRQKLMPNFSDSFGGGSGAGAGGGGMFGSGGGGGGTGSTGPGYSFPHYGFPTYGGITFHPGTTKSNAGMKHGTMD
UniProt Q04206: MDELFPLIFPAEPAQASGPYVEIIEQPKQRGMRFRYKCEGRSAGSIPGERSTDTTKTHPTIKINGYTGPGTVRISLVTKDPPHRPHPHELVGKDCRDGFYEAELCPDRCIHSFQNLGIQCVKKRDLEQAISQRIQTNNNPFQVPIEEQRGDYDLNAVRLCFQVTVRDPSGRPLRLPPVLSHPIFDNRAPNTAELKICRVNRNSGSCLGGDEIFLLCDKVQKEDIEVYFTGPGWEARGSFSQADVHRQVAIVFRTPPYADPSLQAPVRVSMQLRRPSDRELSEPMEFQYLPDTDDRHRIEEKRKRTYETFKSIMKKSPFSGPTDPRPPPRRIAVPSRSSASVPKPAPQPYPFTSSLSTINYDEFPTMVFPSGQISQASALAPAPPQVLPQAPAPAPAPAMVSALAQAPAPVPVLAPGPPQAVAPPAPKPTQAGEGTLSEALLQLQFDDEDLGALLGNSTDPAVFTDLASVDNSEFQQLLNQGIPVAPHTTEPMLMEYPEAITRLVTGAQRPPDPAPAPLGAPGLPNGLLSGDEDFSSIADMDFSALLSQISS
UniProt Q04759: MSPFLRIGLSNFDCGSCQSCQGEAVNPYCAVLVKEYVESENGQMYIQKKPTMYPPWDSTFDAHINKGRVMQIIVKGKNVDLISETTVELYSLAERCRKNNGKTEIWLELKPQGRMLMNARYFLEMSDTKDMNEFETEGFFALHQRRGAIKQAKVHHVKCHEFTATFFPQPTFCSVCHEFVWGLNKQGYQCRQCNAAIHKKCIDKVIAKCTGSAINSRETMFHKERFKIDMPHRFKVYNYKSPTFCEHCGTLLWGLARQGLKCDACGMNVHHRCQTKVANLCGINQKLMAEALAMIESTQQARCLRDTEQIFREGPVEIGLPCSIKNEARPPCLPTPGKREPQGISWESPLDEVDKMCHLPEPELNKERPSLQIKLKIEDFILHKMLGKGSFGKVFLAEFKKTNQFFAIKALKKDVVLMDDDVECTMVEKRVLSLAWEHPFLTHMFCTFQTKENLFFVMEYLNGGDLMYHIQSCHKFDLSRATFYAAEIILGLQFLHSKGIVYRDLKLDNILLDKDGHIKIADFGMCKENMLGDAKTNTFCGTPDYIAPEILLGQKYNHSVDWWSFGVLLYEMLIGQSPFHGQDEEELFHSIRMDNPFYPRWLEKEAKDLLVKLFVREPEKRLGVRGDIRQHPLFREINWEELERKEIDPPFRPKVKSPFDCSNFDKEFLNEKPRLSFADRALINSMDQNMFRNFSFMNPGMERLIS

Legend:
FLAG-KPNA1 (human) [1] = target: FLAG-KPNA1 (human) (UniProt P52294); experiment: co-immunoprecipitation from HEK293T cells, western blot (figure legend)
FLAG-KPNA1 (human) [2] = target: FLAG-KPNA1 (human) (UniProt P52294); experiment: co-immunoprecipitation from HEK293T lysate: anti-FLAG M2 agarose pull-down, western blot with c-Myc (9E10)
myc-p50 (human) [3] = target: myc-p50 (human) (UniProt P19838); experiment: co-immunoprecipitation from HEK293T cells, western blot (figure legend)
myc-p65 (human) [4] = target: myc-p65 (human) (UniProt Q04206); experiment: as above
myc-p50 (human) [5] = target: myc-p50 (human) (UniProt P19838); experiment: co-immunoprecipitation from HEK293T lysate: anti-myc agarose pull-down, western blot with anti-FLAG M2
myc-p65 (human) [6] = target: myc-p65 (human) (UniProt Q04206); experiment: as above

binding (FLAG-KPNA1 (human) [1])	binding (FLAG-KPNA1 (human) [2])	binding (myc-p50 (human) [3])	binding (myc-p65 (human) [4])	binding (myc-p50 (human) [5])	binding (myc-p65 (human) [6])	Substance
binds	binds	–	–	–	–	PKC theta-myc-His (from UniProt Q04759 1-706) (enzyme)
–	–	binds	binds	binds	binds	FLAG-KPNA1 (from UniProt P52294 1-538)
